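The test systems are human melanoma cell lines, treated with a pair of drugs for 72 h and then stained and imaged. Each value is the count of nuclei relative to DMSO-treated wells, in %, so that 100 equals the control. Concentrations were fixed for each drug; these are the lower of two levels, a fifth of the higher. No replicate spread is given; individual values may be noisy.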 Only some of the drugs and lines screened are listed, without regard to their results. A dash means that no value is listed here.

Drug key:
Src-I1 (2 µM): COc1cc2ncnc(Nc3ccc(Oc4ccccc4)cc3)c2cc1OC
pazopanib (0.4 µM): Cc1ccc(Nc2nccc(N(C)c3ccc4c(C)n(C)nc4c3)n2)cc1S(N)(=O)=O
dasatinib (0.004 µM): Cc1nc(Nc2ncc(C(=O)Nc3c(C)cccc3Cl)s2)cc(N2CCN(CCO)CC2)n1
OSI-906 (0.4 µM): C[C@]1(O)C[C@@H](c2nc(-c3ccc4ccc(-c5ccccc5)nc4c3)c3c(N)nccn32)C1
ruxolitinib (1 µM): N#CC[C@H](C1CCCC1)n1cc(-c2ncnc3[nH]ccc23)cn1
AZD7762 (0.02 µM): NC(=O)Nc1cc(-c2cccc(F)c2)sc1C(=O)N[C@H]1CCCNC1
fingolimod (2 µM): CCCCCCCCc1ccc(CCC(N)(CO)CO)cc1
lapatinib (0.8 µM): CS(=O)(=O)CCNCc1ccc(-c2ccc3ncnc(Nc4ccc(OCc5cccc(F)c5)c(Cl)c4)c3c2)o1

| # | Cell line | OSI-906 and ruxolitinib | dasatinib and Src-I1 | lapatinib and ruxolitinib | lapatinib and dasatinib | OSI-906 and AZD7762 | pazopanib and OSI-906 | pazopanib and lapatinib | fingolimod and lapatinib |
|---|---|---|---|---|---|---|---|---|---|
| 1 | IST-MEL1 | 102 | 82.1 | 101 | 93.4 | 120 | 95.0 | 110 | 110 |
| 2 | C32 | 92.6 | 84.7 | 108 | 92.8 | 87.8 | 93.0 | 99.9 | 92.3 |
| 3 | 501mel | - | 95.6 | - | - | - | - | - | - |
| 4 | COLO 829 | 99.5 | 101 | 97.2 | 104 | 115 | 109 | 118 | 104 |
| 5 | G-361 | 103 | 80.2 | 95.3 | 89.8 | 108 | 92.2 | 101 | 93.6 |
| 6 | COLO 792 | 102 | 66.0 | 82.9 | 57.9 | 90.6 | 95.2 | 92.9 | 76.4 |
| 7 | A375 | 73.3 | 84.2 | 106 | 70.8 | 35.5 | 80.2 | 111 | 94.2 |
| 8 | MEL-HO | 103 | 80.7 | 97.3 | 84.6 | 113 | 93.9 | 94.1 | 92.0 |
| 9 | A101D | 116 | 79.4 | 119 | 83.0 | 91.1 | 86.7 | 83.9 | 92.1 |
| 10 | LB2518-MEL | 102 | 106 | 127 | 110 | 92.7 | 100 | 114 | 104 |
| 11 | IPC-298 | 93.9 | 96.0 | 98.2 | 93.5 | 101 | 82.8 | 83.0 | 96.6 |
| 12 | LOX IMVI | 102 | 55.9 | 109 | 79.0 | 74.0 | 84.1 | 94.6 | 107 |
| 13 | A2058 | 81.5 | 92.0 | 86.3 | 77.5 | 112 | 89.7 | 100 | 84.1 |
| 14 | COLO 800 | 83.3 | 123 | 184 | 85.2 | 43.9 | 86.5 | 92.5 | 87.6 |

Repeated from the top, 2 entries:

| Cell line | OSI-906 and ruxolitinib | dasatinib and Src-I1 | lapatinib and ruxolitinib | lapatinib and dasatinib | OSI-906 and AZD7762 | pazopanib and OSI-906 | pazopanib and lapatinib | fingolimod and lapatinib |
|---|---|---|---|---|---|---|---|---|
| IST-MEL1 | 102 | 82.1 | 101 | 93.4 | 120 | 95.0 | 110 | 110 |
| C32 | 92.6 | 84.7 | 108 | 92.8 | 87.8 | 93.0 | 99.9 | 92.3 |

From a melanoma drug combination screen (doi:10.1371/journal.pone.0140310); values rounded.